Measured values from publication PMC7819943, “Rice protein-binding microarrays: a tool to detect cis-acting elements near promoter regions in rice”.
The list shows a part of the results.

target: T1, OsSMF1 (Oryza sativa, UniProt Q6ZLB0 1-436); assay: protein-binding microarray (RPBM); PBS, 2% BSA, 51.3 ng/ul salmon testes DNA, 50 uM zinc acetate, 200 nM TF, 25 C, 1 h; high values mean tight binding; details: protein: recombinant; tags: N-terminal polyhistidine and DsRed monomer fusion (pET32a); chain copies: 2; label: CyDye5-dUTP incorporated in the synthesized complementary strand; 3' TTTTT single-stranded linker to array surface; dsDNA, one strand shown
T1 sequence: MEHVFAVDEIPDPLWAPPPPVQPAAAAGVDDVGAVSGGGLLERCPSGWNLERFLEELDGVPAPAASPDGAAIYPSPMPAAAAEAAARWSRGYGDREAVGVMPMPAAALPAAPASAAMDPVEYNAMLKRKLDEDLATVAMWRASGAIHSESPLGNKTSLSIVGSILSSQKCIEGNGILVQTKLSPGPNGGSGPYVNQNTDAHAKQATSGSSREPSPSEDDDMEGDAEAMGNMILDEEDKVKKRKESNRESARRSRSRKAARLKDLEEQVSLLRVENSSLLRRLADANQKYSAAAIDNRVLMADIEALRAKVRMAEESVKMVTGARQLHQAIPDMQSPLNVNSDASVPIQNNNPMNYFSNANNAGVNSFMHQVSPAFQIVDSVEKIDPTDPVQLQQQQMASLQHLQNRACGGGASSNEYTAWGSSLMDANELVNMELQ
Summary of the method: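 For the binding signal, per-feature fluorescence intensity was read in arbitrary units on an Axon 4000B scanner. Before scanning, a 2% BSA-blocked custom Agilent array made double-stranded with Cy5-dUTP was washed after 1 h at 25 °C with 200 nM protein and 50 µM zinc acetate. The proteins were Ni–NTA-purified transcription factors with N-terminal polyhistidine and DsRed fusions, expressed in E. coli BL21-CodonPlus.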

Sequence | binding signal
GCATCGCCATCGCCGCGTGGTGGCGCACCATTCGCGTCACCGGAGTCACCTAGTGCAG | 5300 fluorescence intensity (a.u.)
TAAGTAAGGAACGTGGATATTTGTATTTTGTAATGGAATTCGGAGTCACCTAGTGCAG | 3170 fluorescence intensity (a.u.)
CGACTTCTTGACGAGGATGTTGTCGGCGTGTCGGTCGATGCGGAGTCACCTAGTGCAG | 3450 fluorescence intensity (a.u.)
GTAACATGGTGATTCAGCACTCCTGGTGAAGTTGTGACATCGGAGTCACCTAGTGCAG | 5470 fluorescence intensity (a.u.)
ACCACTCTCCGCCTCCCTGGCCGCCGTCGCGCCGGGTCGACGGAGTCACCTAGTGCAG | 9860 fluorescence intensity (a.u.)
ACCTTGTACTTTTGTCTACATATGTGTCATTCTATCTTGGCGGAGTCACCTAGTGCAG | 5120 fluorescence intensity (a.u.)
TGCAGTAGGCGGCCGAGCTCCTGGTTGTCGGCGTCCAGCGCGGAGTCACCTAGTGCAG | 5160 fluorescence intensity (a.u.)
GAGATTGTGTGTGTATAGAATGAGTTGTGAATTTGGTAATCGGAGTCACCTAGTGCAG | 3540 fluorescence intensity (a.u.)
CAATTTGGCAGGTGGGTACAATTTGGTGTAAGAACTTGAGCGGAGTCACCTAGTGCAG | 3280 fluorescence intensity (a.u.)
GGCTAATTCGATCTGACATGGCACCGATGTGGGCGCTTACCGGAGTCACCTAGTGCAG | 9740 fluorescence intensity (a.u.)
AACAAAAGGCAAGGACAGGGAGCTGGCACGTCACTGACCGCGGAGTCACCTAGTGCAG | 4340 fluorescence intensity (a.u.)
CTACTTCCTCCGTTTCATAATGTAAGTCATTCTAGCATTTCGGAGTCACCTAGTGCAG | 3170 fluorescence intensity (a.u.)
TTAAACGTTCGATATAATAGGGTGTACAAGTTTTACGTGGCGGAGTCACCTAGTGCAG | 14300 fluorescence intensity (a.u.)
TGACCGTGTGTGTTGCGTAATCAAACTATGATATCTTCTTCGGAGTCACCTAGTGCAG | 8350 fluorescence intensity (a.u.)
TGGGATTAACCGAGGTGGTGTGTGGTGATGTGTACGAGGACGGAGTCACCTAGTGCAG | 5400 fluorescence intensity (a.u.)
GAACACAGCTATAGAGTCAGTCCAGTCAGCCAGCCAGGGGCGGAGTCACCTAGTGCAG | 6100 fluorescence intensity (a.u.)
ATTACAAGCACAAGGTGGGTTTATTATTTGAGTGCTATATCGGAGTCACCTAGTGCAG | 22400 fluorescence intensity (a.u.)
ATTGCTCCAGGCCAAGCACGCTTAACCCTGGAGTTTTCGGCGGAGTCACCTAGTGCAG | 3800 fluorescence intensity (a.u.)
CCTCCTGGCACTAAAGAGAAGTTATGGATGATGCAAGACCCGGAGTCACCTAGTGCAG | 3450 fluorescence intensity (a.u.)
TCACCACCAACAAGAATGTCCATGTCATCCTTCCACCATCCGGAGTCACCTAGTGCAG | 4730 fluorescence intensity (a.u.)
GGTGACCCATAGATAAGCCCACATAACCAACTCATCAAGCCGGAGTCACCTAGTGCAG | 27900 fluorescence intensity (a.u.)

An excerpt of these results, field by field.
GGCTAATTCGATCTGACATGGCACCGATGTGGGCGCTTACCGGAGTCACCTAGTGCAG
  binding signal: 9740 fluorescence intensity (a.u.)
AACAAAAGGCAAGGACAGGGAGCTGGCACGTCACTGACCGCGGAGTCACCTAGTGCAG
  binding signal: 4340 fluorescence intensity (a.u.)
GGTGACCCATAGATAAGCCCACATAACCAACTCATCAAGCCGGAGTCACCTAGTGCAG
  binding signal: 27900 fluorescence intensity (a.u.)

Next part

Sequence | binding signal
CTCATCCTAAGATGATGAATTGGTGACGATGGTGATGTTCCGGAGTCACCTAGTGCAG | 4450 fluorescence intensity (a.u.)
CAGTATAGGCATGCTGTGCCACGTAGGCGCGCCATGTCAGCGGAGTCACCTAGTGCAG | 30600 fluorescence intensity (a.u.)
ACCACCACCTTCGCCACGAGCTCCACGCCGTTGCCACTGTCGGAGTCACCTAGTGCAG | 20900 fluorescence intensity (a.u.)
GGAAAGAGACACCTGTGTGACACGTCGTCCCGTGTAGCCACGGAGTCACCTAGTGCAG | 9750 fluorescence intensity (a.u.)
AGTTATATAGTTCCTGCTGCTAATGCTTCTGGTGGTCTTTCGGAGTCACCTAGTGCAG | 3910 fluorescence intensity (a.u.)
CGAACGGTCGTCTGCCACGTCATTTTCGCCGCCCTCTGAGCGGAGTCACCTAGTGCAG | 38100 fluorescence intensity (a.u.)
GTTAATTAAGTGTCGATGCTTACGTGGCAGTGATAGACGTCGGAGTCACCTAGTGCAG | 20100 fluorescence intensity (a.u.)
TCGAACCAACTCGACTACAATCTCGCCAGATCTGACAAGTCGGAGTCACCTAGTGCAG | 24100 fluorescence intensity (a.u.)
ATCACGTAGTAAACTTACCGTAAGATTGTGTGACTAGGCACGGAGTCACCTAGTGCAG | 5320 fluorescence intensity (a.u.)
GACAATGATCATCAGACCCAGGCACCCAGCCTTTCATTTTCGGAGTCACCTAGTGCAG | 6040 fluorescence intensity (a.u.)
GCCGCCTAACTCCTCTGCGGCCGCCACGTGCACGCGCCGCCGGAGTCACCTAGTGCAG | 7330 fluorescence intensity (a.u.)
GCATTTTATATGTTGTGAGTTGTGACCTCATTTCATTGTACGGAGTCACCTAGTGCAG | 3570 fluorescence intensity (a.u.)
GAGCCTGAAGAAACCAGCTCCGTCTCGATGCTCATACATACGGAGTCACCTAGTGCAG | 17100 fluorescence intensity (a.u.)
AGTACAATACAATACAAATCATCAAGTATAAACCAAAGGTCGGAGTCACCTAGTGCAG | 3760 fluorescence intensity (a.u.)
GCTACATGATTTGACTACGTGGTGCTATAGTAAACATTTGCGGAGTCACCTAGTGCAG | 5280 fluorescence intensity (a.u.)
AACTGATTGGCTGAGGGATGGCATCTGGTGGTGGCGCCCCCGGAGTCACCTAGTGCAG | 3220 fluorescence intensity (a.u.)
CGTTTGTCCTTCGATAACAGTGTGTCATGGCCCATATATACGGAGTCACCTAGTGCAG | 3980 fluorescence intensity (a.u.)
TCTGCCGCCGGCCGCGGCGAGGGATGGCATTGGCGTGGCGCGGAGTCACCTAGTGCAG | 3550 fluorescence intensity (a.u.)
ATGAAGAGGTTCTTCGGCGACACGCGGCCGCCCAACTACTCGGAGTCACCTAGTGCAG | 3440 fluorescence intensity (a.u.)
TGCTTCCCCTGTTCTGATCACCTGCGCACACGGGTGCTCACGGAGTCACCTAGTGCAG | 49200 fluorescence intensity (a.u.)
GTTCTACACTCTTCGATCGCCTCCGCCGCGCTCGTGGGGTCGGAGTCACCTAGTGCAG | 3670 fluorescence intensity (a.u.)
